The source of these data is article PMC7984827, “A high-content AlphaScreen™ identifies E6-specific small molecule inhibitors as potential therapeutics for HPV^+ head and neck squamous cell carcinomas” (Oncotarget, 2021).

These are yes or no findings as the source states them, for the method shown. Some binding calls cover weakened binding; strength is not graded here. Sequences can lack the tags named with a protein.

The assay concerns the target T1, His6-Caspase 8 (human Caspase 8) (human), Q14790.
T1 chain: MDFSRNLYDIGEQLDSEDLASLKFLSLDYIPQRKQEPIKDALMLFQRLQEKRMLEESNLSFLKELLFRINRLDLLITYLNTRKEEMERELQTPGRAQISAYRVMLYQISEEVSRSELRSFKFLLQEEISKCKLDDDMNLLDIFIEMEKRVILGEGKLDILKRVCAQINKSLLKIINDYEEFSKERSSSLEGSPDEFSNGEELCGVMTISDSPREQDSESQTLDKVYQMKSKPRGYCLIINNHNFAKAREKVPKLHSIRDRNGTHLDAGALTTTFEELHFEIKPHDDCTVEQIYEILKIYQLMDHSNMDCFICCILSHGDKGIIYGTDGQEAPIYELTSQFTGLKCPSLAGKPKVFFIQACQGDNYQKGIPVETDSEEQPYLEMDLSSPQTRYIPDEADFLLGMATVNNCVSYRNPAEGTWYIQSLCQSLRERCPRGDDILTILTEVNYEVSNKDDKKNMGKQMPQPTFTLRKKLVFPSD
Description: AlphaScreen or HTRF; both purified. To be noted: remark: other sources report otherwise.

B1: GST-Caspase 8, Q14790 1-479 (enzyme)
chain: MDFSRNLYDIGEQLDSEDLASLKFLSLDYIPQRKQEPIKDALMLFQRLQEKRMLEESNLSFLKELLFRINRLDLLITYLNTRKEEMERELQTPGRAQISAYRVMLYQISEEVSRSELRSFKFLLQEEISKCKLDDDMNLLDIFIEMEKRVILGEGKLDILKRVCAQINKSLLKIINDYEEFSKERSSSLEGSPDEFSNGEELCGVMTISDSPREQDSESQTLDKVYQMKSKPRGYCLIINNHNFAKAREKVPKLHSIRDRNGTHLDAGALTTTFEELHFEIKPHDDCTVEQIYEILKIYQLMDHSNMDCFICCILSHGDKGIIYGTDGQEAPIYELTSQFTGLKCPSLAGKPKVFFIQACQGDNYQKGIPVETDSEEQPYLEMDLSSPQTRYIPDEADFLLGMATVNNCVSYRNPAEGTWYIQSLCQSLRERCPRGDDILTILTEVNYEVSNKDDKKNMGKQMPQPTFTLRKKLVFPSD
For B1, the binding result is “binds”.
